No constants are given. Whether binding was seen depends on the method and setting. Some results given as binding are weak or reduced against the parent protein; the word gives no strength.
B1: 107-A1 (VHH, not shown: small tags and cut ends)
VHH: EVQLVESGGGLVQAGESLRLSCVASGISISTEIMGWWRQAPGKQGESVAILKSDGTTYYPDSVKGRFAISRDNAKNTVYLQMSSLKLEDTGVYYCIIAGRGRGQGTQVTVSS
B2: 107-G6 (VHH, not shown: small tags and cut ends)
VHH: EVQLVESGGGLVQAGESLRLSCVASGISISTEIMGWWRQAPGKQGESVAILKSDGTTYYPDSVKGRFAISRDNAKNTVYLQMSSLKLEDTGVYYCIIAGRGRGQGTQVTVSS
B3: 107-D6 (VHH, not shown: small tags and cut ends)
VHH: EVQLVESGGGLVQAGESLRLSCVASGISISTEIMGWYRQAPGKQGESVAIVKSDGSTYYPDSVKGRFGISRDNAKNTVYLQMNSLKVEDTGVYYCIMAGRGRGQGTQVTVSS
B4: 133-B1 (VHH, not shown: small tags and cut ends)
VHH: EVQLVESGGGLVQAGESLRLSCVASGISISTEIMGWYRQAPGKQGESVAIVKSDGSTYYPDSVKGRFGISRDNAKNTVYLQMNSLKVEDTGVYYCIMAGRGRGQGTQVTVSS
B5: 107-E1 (VHH, not shown: small tags and cut ends)
VHH: EVQLVESGGGLVQAGGSLRLSCVASGITISTEVMGWYRQAPGKQGESVAIIKSDGSTYYPDSVKGRFAISRDNAKNTVYLQMNSLKLEDTGVYYCIIAGRGRGQGTQVTVSS
B6: 133-C5 (VHH, not shown: small tags and cut ends)
VHH: EVQLVESGGGLVQAGGSLRLSCVASGITISTEVMGWYRQAPGKQGESVAIIKSDGSTYYPDSVKGRFAISRDNAKNTVYLQMNSLKLEDTGVYYCIIAGRGRGQGTQVTVSS
B7: 133-D1 (VHH, not shown: small tags and cut ends)
VHH: ZVQLVESGGGLVQAGESLRLSCVASGISINTNVMGWYRQAPGKEGESVAIIKTDGSTYYPDSVKGRFAISRDNAKNTVYLQMNSLKLEDTGVYYCIIAGRGRGQGTQVTVSS
B8: 107-B9 (VHH, not shown: small tags and cut ends)
VHH: EVQLVESGGGLVQPGGSLRLSCAASGSIFSINDMGWFRQAPGKEREHAALIRFKDGSIYYADSVKGRFTISRDNAKNTVYLQMNSLKPEDTAVYYCAAKTGTSFVYWGQGTQVTVSS
B9: 107-D8 (VHH, not shown: small tags and cut ends)
VHH: EVQLVESGGGLVQPGGSLRLSCAASGSIFSINDMGWFRQAPGKEREHVALIRIKDGSIYYADSVKGRFTISRDNAKNTVYLQMNSLKPEDTAVYYCAAKTGTPFVYWGQGTQVTVSS
B10: 107-F12 (VHH, not shown: small tags and cut ends)
VHH: EVQLVESGGGLVQPGGSLRLSCAASGSIFSINDMGWFRQAPGKEREHAALIRFKDGSIYYADSVKGRFTISRDNAKNTVYLQMNSLKPEDTAVYYCAAKTGTSFVYWGQGTQVTVSS
B11: 107-F8 (VHH, not shown: small tags and cut ends)
VHH: EVQLVESGGGLVQPGGSLRLSCAASGSIFSINDMGWFRQAPGKEREHVALIRIKDGSIYYADSVKGRFTISRDNAKNTVYLQMNSLKPEDTAVYYCAAKTGTPFVYWGQGTQVTVSS
B12: 132-F10 (VHH, not shown: small tags and cut ends)
VHH: EVQLVESGGGLVQAGGSLRLSCAASGNTFSFNVMGWYRQAPGKQRELVTIIBNGGTTNYADSVKGRFTISRDNAKNTVYLQMNSLKPEDTARYYCHARRGGTLYILGDSNYWGQGTQVTVSS
B13: 132-B10 (VHH, not shown: small tags and cut ends)
VHH: EVQLVESGGGLVQAGGSLRLSCAASGNTFSFNVMGWYRQAPGKQRELVTIIDNGGTTDYADSVKGRFTISRBNAKNTVYLQMNSLKPEDTARYHCHARRGGTLYTLGESNYWGQGIQVTVSS
B14: 132-D4 (VHH, not shown: small tags and cut ends)
VHH: EVQLVESGGGLVQAGGSLRLSCVLSGSSVSIGAMGWYRQAPGKQRDLVAEIYPSGSTIYADSVKGRFTISRDNAKNTVYLQMKSLKPEDTAVYYCNVVRWGADFWGQGTQVTVSS
B15: 132-E3 (VHH, not shown: small tags and cut ends)
VHH: EVQLVESGGGLVQAGGSLRLSCVLSGSSVSIGAMGWYRQAPGKQRDLVAEIYPSGSTIYADSVKGRFTISRDNAKNTVYLQMKSLKPEDTAVYYCNVVRWGADFWGQGTQVTVSS
B16: 132-C2 (VHH, not shown: small tags and cut ends)
VHH: EVQLVESGGGLVQAGGSLRLSCAASGSIFSIKDMRWFRQAPGKHRELVARISSGGATHYADPVKGRFTISRDNAKNTGSLQMNSLKPEDTAVYYCNADDSSAGWPPRNYWGQGTQVTVSS
B17: 132-G4 (VHH, not shown: small tags and cut ends)
VHH: EVQLVESGGGLVQAGGSLRLSCAASGSIFSIKDMRWFRQAPGKHRELVARISSGGATHYADPVKGRFTISRDNAKNTGSLQMNSLKPEDTAVYYCNADDSSAGWPPRNYWGQGTQVTVSS

Amino acid sequences for entries named in this document (tags omitted). A change or cut given only in a name is not applied to a line headed by its entry. Residues count along the entry.
UniProt O00206: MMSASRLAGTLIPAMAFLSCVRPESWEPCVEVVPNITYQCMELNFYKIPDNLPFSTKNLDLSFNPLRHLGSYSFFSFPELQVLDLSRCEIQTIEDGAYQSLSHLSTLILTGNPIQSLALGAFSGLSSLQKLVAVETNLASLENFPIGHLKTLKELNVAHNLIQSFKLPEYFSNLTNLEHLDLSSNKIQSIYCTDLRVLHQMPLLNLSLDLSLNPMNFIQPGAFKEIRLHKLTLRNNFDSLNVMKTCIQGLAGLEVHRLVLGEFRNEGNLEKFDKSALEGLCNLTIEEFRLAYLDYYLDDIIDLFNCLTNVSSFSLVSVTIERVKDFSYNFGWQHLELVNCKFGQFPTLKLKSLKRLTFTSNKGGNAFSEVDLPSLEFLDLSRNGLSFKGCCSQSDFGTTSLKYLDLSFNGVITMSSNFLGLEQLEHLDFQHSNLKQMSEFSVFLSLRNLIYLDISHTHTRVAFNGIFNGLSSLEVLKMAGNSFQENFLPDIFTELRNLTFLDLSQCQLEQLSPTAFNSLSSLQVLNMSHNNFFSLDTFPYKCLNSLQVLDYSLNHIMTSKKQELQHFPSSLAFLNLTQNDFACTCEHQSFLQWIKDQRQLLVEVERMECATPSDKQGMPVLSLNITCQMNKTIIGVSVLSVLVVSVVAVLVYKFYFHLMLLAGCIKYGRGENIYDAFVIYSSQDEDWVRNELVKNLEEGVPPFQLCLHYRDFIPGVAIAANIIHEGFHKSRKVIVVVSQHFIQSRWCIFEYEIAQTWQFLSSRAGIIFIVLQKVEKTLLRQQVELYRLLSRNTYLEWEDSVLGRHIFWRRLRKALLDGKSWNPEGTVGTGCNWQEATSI
UniProt Q9Y6Y9: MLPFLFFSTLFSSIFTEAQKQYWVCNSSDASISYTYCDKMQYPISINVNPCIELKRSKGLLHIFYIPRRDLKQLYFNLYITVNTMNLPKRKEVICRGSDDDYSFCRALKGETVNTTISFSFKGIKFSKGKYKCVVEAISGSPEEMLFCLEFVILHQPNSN
UniProt O15455, residues 27-700: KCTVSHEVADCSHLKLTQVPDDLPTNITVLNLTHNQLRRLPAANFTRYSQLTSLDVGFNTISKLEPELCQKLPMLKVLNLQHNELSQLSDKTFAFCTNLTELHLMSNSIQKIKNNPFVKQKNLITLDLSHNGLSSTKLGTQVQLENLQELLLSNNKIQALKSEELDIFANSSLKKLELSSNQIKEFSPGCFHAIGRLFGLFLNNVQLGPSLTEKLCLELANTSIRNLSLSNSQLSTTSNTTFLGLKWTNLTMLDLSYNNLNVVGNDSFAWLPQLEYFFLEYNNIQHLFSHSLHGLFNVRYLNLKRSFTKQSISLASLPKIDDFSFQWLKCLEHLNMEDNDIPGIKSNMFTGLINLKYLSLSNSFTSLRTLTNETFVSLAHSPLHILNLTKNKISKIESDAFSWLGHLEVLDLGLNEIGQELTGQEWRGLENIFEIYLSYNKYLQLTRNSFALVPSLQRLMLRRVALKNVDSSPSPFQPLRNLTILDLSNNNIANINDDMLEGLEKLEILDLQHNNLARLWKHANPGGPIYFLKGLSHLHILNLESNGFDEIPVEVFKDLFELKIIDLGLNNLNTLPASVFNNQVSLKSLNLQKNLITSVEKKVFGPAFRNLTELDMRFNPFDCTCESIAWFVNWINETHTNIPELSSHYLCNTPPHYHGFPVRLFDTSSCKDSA
UniProt Q99MB1, residues 26-705: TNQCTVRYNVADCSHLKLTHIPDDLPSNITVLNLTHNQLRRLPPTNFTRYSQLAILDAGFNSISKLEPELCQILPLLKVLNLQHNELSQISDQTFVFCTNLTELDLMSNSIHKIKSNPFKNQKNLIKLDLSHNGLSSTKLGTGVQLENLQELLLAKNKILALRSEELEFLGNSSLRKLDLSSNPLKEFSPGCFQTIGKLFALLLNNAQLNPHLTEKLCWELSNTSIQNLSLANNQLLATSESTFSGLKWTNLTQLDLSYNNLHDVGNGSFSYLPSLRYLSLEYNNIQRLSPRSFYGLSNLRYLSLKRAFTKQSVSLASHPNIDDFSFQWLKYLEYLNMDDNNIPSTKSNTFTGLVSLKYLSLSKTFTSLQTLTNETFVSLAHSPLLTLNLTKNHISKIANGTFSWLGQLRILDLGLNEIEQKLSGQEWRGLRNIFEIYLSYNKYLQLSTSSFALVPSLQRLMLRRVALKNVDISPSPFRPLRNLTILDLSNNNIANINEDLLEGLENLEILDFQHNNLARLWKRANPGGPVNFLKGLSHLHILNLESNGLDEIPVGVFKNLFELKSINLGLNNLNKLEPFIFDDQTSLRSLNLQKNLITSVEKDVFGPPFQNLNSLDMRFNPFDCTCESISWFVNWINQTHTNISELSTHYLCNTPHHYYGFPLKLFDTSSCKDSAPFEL

What follows are binders tested against recombinant human TLR4/MD2 (rhTLR4/MD2), R&D Systems cat no: 3146-TM/CF (human) (UniProt O00206+Q9Y6Y9) (assay: ELISA: TLR coated at 2 ug/ml, periplasmic extract of the clone, anti-VHH detection, OD against no-Nanobody control).

binding, binds:
B1
B2
B3
B4
B5
B6
B7
B8
B9
B10
B11

The binders below were run against recombinant human TLR3, R&D Systems cat no: 1487-TR (human) (UniProt O15455) in the same assay as above.

binding, binds:
B12
B13

Each binder was assayed against recombinant murine TLR3, R&D Systems cat no: 3005-TR (murine) (UniProt Q99MB1) in the same assay as above.

binding, binds:
B14
B15
B16
B17

Reference: WO2009138494A2 (dated 2009)
